These are yes or no findings as the source states them, for the method shown. In cells and extracts the contact can be indirect. Some binding calls cover weakened binding; strength is not graded here. Sequences can lack the tags named with a protein.
Assays:
human BMP-4 (human) = molecular target: T1, human BMP-4 (human) (UniProt P12644); test: co-immunoprecipitation with anti-myc 9E10 beads, western blot for BMP-4
T1 sequence (looked up): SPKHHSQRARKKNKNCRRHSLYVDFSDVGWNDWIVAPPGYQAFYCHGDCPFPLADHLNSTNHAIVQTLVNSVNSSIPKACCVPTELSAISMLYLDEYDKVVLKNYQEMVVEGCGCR

human BMP-2 (human) = molecular target: T2, human BMP-2 (human) (UniProt P12643); test: co-immunoprecipitation with anti-myc 9E10 beads, western blot for BMP-2
T2 sequence (looked up): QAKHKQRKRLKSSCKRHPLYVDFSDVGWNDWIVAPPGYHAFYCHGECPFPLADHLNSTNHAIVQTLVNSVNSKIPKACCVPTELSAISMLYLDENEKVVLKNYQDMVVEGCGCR

- binding (human BMP-4 (human)): binds
- binding (human BMP-2 (human)): binds
B1: human DCR5-myc3 (other)
chain: RKNRPAGAIPSPYKDGSSNNSERWQHQIKEVLASSQEALVVTERKYLKSDWCKTQPLRQTVSEEGCRSRTILNRFCYGQCNSFYIPRHVKKEEESFQSCAFCKPQRVTSVLVELECPGLDPPFRLKKIQKVKQCRCMSVNLSDSDKQTGEQKLISEEDLGGEQKLISEEDLGGEQKLISEEDLGP
notes: Used as serum-free conditioned medium of transiently transfected COS7 cells; also called Human DCR5-myc3 protein; hDCR-5

Source: US20040106134A1 (Regeneron, published 2004)
